The assay concerns the target T1, His-tagged Hha (His-Hha, plasmid pET15bHisHha) (UniProt P0ACE3).
T1 sequence: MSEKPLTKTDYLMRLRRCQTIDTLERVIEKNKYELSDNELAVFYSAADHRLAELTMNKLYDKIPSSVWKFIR
The experiment in a line: affinity purification with mass spectrometry; purified His-Hha mixed with E. coli 042 total protein extract, purified again on Ni2+-agarose; the fraction coeluting with Hha analysed by LC-MS/MS; only the target purified.

No constants are given. Whether binding was seen depends on the method and setting. In cells and extracts the contact can be indirect. A yes stands for co-enrichment or nearness to the bait. Other partners may have been found. Where a sequence is shown, tags or fusion partners need not be part of it.

As to “H-NS2 protein of E. coli strain 042 (endogenous)”, the binding entry is given as “binds”.

The values are drawn from publication PMC5861252.
